PubChem BioAssay AID1259405, NCATS, 2018
Assay: 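Knock-downs that lift recombinant protein yield in hamster ovary cells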 (primary screen). Cells: Chinese hamster CHO-K1 ovary cells with stable secreted eGFP expression. Reagent: single siRNA against mouse genes, 0.8 pmol siRNA per well (2 µl of 400 nM stock). Duration: 3 days. Measured: 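Percent of the per-plate non-targeting control median for intracellular GFP per well by laser scanning cytometry and for cell viability by ATP luminescence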. Scale: GFP, % of control: higher = more GFP per well, higher productivity. Hit rule: 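Called active when intracellular GFP, relative to negative control, is at or above 120%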.
In all, the deposit lists about 50,000 reagents; shown is a part drawn at random. In the full data, about 4,000 (8%) were called active. 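Mouse siRNA library applied to hamster cells; one well for each siRNA.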 Unmarked entries are inactive. The numbers tell different reagents against one gene apart. Not all columns of the deposit are shown.

GFP, % of control, by target gene and reagent
Loxl4 (GeneID 67573): #1 90.1; #2 99; #3 62.3
Or4f58 (GeneID 258271): #1 118; #2 29.7; #3 112
Hspbap1 (GeneID 66667): #1 83.6; #2 75.5; #3 106
Imp3 (GeneID 102462): #1 41.1; #2 123 (active); #3 70
Bbx (GeneID 70508): #1 148 (active); #2 111; #3 32.1; #4 89; #5 122 (active); #6 78.1
Rnase9 (GeneID 328401): #1 72.1; #2 72.9; #3 57.8
Mfsd1 (GeneID 66868): #1 109; #2 68.9; #3 130 (active)
Cygb (GeneID 114886): #1 82.9; #2 102; #3 65.2
Htra2 (GeneID 64704): #1 52; #2 90.3; #3 87
Fzd7 (GeneID 14369): #1 51.9; #2 89.5
Fan1 (GeneID 330554): #1 103; #2 76.4; #3 84.7
Sh2b3 (GeneID 16923): #1 67.1; #2 86.9; #3 145 (active)
Atp1a3 (GeneID 232975): #1 105; #2 59.8; #3 64
Ggn (GeneID 243897): #1 63.4; #2 134 (active); #3 70.5
Serpine2 (GeneID 20720): #1 92; #2 43.4; #3 43.2
Pnoc (GeneID 18155): #1 97.2; #2 58.8; #3 93
Raet1b (GeneID 19369): #1 90.1; #2 90.7; #3 56

Targets listed so far whose gene name starts with G or g (3):
GFP, % of control, by target gene and reagent
Ggn (GeneID 243897): #1 63.4; #2 134 (active); #3 70.5

Next results:
GFP, % of control, by target gene and reagent
Fxyd5 (GeneID 18301): #1 130 (active); #2 97.5
Nebl (GeneID 74103): #1 130 (active); #2 86; #3 134 (active)
Sf3b2 (GeneID 319322): #1 117; #2 174 (active); #3 50.7
Fbxo45 (GeneID 268882): #1 81.3; #2 100
Kifc2 (GeneID 16581): #1 149 (active); #2 84.8
Col4a2 (GeneID 12827): #1 81.3; #2 105; #3 89.2
Slc26a1 (GeneID 231583): #1 109; #2 35.1; #3 25.9
Vmn1r69 (GeneID 252904): #1 72.5; #2 65.3; #3 74.1
Mak16 (GeneID 67920): #1 78.9; #2 60.1; #3 73.2
Vill (GeneID 22351): #1 83.5; #2 77.2
Smg7 (GeneID 226517): #1 84.9; #2 55.5; #3 71.2
Naglu (GeneID 27419): #1 103; #2 93; #3 51.5
